# In the supplement of paper PMC12595434, “Development of retinoid nuclear receptor pathway antagonists through targeting aldehyde dehydrogenase 1A3” (iScience, 2025):
# Amino acid sequences for entries named in this document (tags omitted). A change or cut given only in a name is not applied to a line headed by its entry.
# UniProt P61088: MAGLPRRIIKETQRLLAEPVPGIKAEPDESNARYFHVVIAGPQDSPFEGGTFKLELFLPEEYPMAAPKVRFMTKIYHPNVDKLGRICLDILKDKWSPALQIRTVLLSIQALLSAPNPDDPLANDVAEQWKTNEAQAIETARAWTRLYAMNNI
# UniProt P52888, whole entry: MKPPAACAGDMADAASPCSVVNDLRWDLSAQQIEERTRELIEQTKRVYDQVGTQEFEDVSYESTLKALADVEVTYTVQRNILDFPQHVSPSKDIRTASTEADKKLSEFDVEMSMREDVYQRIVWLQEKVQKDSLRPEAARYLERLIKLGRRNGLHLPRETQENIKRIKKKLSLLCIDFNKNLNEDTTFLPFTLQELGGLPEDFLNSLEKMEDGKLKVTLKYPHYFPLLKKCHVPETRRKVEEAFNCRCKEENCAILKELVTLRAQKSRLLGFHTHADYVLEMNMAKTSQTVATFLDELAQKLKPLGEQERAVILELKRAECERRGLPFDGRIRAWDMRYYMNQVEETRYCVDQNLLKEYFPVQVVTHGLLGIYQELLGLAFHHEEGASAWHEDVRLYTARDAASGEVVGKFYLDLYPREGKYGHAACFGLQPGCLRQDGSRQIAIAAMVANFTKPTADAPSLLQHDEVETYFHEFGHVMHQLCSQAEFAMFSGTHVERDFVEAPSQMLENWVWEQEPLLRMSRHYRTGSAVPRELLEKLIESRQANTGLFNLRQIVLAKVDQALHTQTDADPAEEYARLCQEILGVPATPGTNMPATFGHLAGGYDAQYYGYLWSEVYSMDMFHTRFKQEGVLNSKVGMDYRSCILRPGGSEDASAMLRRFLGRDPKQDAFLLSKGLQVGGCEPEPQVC
# UniProt P53814: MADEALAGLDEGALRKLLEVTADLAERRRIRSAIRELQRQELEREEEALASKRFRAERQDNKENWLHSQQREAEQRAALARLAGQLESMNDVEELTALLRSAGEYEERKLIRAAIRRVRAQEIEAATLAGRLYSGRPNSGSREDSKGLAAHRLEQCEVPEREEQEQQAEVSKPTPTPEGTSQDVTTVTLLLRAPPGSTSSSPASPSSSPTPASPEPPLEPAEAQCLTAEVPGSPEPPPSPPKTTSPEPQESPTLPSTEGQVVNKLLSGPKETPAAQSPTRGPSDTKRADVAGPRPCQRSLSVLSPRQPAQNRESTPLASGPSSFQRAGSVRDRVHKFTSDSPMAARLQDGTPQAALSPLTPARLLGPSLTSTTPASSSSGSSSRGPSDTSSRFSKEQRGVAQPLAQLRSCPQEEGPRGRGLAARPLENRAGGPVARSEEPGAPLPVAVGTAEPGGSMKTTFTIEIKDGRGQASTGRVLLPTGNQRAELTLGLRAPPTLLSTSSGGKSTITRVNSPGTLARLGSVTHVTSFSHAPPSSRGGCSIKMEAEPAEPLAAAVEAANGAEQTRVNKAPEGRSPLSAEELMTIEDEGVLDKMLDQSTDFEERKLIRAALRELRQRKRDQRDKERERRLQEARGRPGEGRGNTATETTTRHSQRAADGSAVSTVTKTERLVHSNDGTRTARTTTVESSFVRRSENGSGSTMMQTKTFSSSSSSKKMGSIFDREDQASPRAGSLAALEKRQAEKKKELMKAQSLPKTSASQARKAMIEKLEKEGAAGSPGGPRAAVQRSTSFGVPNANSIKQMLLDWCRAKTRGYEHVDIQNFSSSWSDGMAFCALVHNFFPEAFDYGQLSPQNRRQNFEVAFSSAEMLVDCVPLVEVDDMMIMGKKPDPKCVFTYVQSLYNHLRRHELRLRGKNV
# UniProt P63172, whole entry: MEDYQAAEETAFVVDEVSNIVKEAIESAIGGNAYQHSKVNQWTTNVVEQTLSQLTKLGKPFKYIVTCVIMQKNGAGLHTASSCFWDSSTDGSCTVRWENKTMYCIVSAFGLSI
# UniProt P53609, whole entry, looked up: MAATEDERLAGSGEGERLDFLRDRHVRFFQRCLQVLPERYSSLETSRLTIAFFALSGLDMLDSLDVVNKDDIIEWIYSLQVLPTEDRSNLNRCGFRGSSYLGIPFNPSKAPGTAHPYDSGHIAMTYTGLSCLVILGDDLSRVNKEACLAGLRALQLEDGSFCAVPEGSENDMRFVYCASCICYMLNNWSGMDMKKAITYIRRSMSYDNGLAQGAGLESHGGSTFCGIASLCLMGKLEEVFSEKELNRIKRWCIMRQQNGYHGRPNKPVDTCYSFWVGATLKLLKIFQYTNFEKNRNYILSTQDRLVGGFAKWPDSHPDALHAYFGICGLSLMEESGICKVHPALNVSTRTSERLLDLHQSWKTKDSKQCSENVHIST
# UniProt P63167, whole entry: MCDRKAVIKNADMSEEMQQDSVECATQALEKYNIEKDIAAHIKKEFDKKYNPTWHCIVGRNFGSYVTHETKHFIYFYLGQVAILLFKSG
# UniProt P53611: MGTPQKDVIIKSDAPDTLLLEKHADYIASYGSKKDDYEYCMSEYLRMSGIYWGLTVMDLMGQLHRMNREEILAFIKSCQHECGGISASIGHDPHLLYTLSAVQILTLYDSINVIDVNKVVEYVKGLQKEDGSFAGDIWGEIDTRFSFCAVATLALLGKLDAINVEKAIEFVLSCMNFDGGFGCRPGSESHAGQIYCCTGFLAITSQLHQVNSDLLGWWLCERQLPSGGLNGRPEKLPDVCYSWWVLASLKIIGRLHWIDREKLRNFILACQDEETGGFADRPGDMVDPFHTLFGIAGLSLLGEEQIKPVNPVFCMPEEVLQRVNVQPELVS
# UniProt P56645: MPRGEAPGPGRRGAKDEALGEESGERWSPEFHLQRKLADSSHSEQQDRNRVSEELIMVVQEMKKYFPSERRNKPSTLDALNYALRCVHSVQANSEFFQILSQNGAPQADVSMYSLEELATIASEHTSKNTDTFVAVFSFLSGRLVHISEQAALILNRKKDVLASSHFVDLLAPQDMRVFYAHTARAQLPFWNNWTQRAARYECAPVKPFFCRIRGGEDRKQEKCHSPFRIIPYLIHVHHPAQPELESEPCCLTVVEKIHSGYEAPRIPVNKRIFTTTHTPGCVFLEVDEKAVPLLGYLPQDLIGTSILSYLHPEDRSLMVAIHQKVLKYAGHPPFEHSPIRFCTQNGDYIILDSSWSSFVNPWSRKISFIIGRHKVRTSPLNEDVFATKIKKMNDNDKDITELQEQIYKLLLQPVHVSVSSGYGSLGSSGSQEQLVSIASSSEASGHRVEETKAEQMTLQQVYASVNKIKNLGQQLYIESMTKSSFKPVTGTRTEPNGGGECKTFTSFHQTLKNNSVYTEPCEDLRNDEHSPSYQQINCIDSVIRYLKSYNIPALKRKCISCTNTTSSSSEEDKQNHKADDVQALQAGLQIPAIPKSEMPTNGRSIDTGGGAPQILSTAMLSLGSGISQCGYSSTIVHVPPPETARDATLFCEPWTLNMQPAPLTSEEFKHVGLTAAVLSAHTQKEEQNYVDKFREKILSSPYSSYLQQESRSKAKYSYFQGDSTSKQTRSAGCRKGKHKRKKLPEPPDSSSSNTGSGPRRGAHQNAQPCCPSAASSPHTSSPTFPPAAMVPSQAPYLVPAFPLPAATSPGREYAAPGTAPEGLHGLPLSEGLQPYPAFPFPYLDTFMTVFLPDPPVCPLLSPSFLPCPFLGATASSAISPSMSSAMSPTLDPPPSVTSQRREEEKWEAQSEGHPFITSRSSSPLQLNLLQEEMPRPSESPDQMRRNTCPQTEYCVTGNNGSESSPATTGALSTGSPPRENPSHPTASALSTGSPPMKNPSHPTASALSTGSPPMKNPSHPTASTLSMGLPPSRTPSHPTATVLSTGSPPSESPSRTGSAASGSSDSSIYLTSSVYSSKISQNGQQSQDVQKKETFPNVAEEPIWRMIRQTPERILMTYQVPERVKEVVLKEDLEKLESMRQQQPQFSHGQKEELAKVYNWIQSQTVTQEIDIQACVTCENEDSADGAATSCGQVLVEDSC
# UniProt P54803: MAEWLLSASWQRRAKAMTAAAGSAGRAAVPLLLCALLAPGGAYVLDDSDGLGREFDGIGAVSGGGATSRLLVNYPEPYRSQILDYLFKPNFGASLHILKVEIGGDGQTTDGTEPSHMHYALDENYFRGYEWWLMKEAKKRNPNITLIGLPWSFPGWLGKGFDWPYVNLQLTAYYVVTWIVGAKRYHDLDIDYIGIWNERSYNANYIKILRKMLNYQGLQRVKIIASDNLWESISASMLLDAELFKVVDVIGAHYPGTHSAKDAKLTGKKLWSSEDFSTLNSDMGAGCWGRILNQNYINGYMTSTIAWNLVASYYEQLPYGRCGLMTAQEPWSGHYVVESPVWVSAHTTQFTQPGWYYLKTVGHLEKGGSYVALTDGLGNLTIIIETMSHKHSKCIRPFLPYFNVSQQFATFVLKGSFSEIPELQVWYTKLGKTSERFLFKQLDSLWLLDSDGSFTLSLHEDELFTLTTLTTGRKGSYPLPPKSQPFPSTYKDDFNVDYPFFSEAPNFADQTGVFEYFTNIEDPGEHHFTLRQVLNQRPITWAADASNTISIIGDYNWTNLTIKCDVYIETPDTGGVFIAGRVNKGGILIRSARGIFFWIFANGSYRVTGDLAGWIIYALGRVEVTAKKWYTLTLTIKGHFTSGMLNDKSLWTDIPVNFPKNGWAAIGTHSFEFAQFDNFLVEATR
# UniProt P61201: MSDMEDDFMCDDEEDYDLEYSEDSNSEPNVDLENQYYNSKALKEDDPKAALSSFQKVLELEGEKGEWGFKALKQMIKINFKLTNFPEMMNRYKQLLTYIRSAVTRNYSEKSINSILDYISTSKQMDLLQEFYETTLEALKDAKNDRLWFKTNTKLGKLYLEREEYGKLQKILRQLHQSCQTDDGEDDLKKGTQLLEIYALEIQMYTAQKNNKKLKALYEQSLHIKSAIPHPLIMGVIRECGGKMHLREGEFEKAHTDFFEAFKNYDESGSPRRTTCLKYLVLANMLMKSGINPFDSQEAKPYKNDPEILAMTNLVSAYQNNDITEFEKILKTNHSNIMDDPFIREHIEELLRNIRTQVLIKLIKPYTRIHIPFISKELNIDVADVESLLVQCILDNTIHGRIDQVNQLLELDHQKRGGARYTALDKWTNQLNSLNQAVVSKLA
# UniProt P57105: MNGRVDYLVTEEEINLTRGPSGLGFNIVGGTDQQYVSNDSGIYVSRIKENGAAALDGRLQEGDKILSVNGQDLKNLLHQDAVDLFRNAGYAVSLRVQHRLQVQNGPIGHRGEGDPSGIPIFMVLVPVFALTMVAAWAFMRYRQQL
# UniProt P53778: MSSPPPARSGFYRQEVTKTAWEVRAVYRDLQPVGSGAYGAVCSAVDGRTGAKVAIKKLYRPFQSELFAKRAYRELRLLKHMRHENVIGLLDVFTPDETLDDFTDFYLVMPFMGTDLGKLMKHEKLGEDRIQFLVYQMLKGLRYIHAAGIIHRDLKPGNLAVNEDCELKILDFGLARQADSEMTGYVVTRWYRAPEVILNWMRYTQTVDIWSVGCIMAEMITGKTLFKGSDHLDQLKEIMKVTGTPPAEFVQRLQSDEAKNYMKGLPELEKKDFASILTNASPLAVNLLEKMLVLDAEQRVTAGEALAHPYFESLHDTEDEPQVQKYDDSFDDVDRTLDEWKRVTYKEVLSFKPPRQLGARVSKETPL
# UniProt P68104, whole entry: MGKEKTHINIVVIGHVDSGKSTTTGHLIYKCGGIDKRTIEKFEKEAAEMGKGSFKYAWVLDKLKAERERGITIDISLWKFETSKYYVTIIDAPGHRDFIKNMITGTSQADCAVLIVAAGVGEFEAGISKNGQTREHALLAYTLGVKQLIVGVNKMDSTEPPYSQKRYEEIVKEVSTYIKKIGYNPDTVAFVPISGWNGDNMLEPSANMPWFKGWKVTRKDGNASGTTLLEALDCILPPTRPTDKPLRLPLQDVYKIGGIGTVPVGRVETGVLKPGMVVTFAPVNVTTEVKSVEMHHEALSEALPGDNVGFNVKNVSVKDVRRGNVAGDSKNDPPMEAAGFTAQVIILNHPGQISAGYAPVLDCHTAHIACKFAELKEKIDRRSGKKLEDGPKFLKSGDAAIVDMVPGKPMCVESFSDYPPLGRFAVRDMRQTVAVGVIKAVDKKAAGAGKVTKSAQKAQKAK
# UniProt P61163, whole entry: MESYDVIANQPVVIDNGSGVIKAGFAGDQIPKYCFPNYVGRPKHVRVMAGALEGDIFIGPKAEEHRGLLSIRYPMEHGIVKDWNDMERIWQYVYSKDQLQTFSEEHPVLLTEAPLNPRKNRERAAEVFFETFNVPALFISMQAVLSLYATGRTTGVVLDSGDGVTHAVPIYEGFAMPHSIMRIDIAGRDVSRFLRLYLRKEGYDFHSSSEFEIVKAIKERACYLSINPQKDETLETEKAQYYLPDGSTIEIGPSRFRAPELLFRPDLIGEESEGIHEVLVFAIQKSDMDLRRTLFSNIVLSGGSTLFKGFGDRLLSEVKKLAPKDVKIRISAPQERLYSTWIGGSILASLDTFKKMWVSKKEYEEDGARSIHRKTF
# UniProt P61960, whole entry: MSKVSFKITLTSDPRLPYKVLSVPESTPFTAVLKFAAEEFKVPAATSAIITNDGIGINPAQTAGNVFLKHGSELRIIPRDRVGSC
# UniProt P60903, whole entry: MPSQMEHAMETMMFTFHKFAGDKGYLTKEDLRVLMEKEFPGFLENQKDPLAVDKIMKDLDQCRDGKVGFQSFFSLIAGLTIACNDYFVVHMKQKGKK
# The other results are listed elsewhere or left out. This is a noisy data set.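 Many melting curves are irregular; where none melted, Tm was taken as 64 °C.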
# Compound: CCc1cnccc1C(=O)Nc1cc2c(cc1F)NC(=O)CC2
# Experiment: melting temperature shift (DMSO Tm minus MBE1-treated Tm) in cellular thermal proteome profiling; higher = less thermal stabilization by MBE1 (negative = stabilized by MBE1)
# Settings: A375
target,measurement,setting,value
HDAC4 (UniProt P56524),melting temperature shift,MBE1 concentration: 100 nM,-0.932 °C
same,melting temperature shift,MBE1 concentration: 1 uM,-1.52 °C
UniProt P62072,melting temperature shift,MBE1 concentration: 100 nM,-4.02 °C
same,melting temperature shift,MBE1 concentration: 1 uM,-3.37 °C
UBE2N (UniProt P61088),melting temperature shift,MBE1 concentration: 100 nM,0.302 °C
same,melting temperature shift,MBE1 concentration: 1 uM,-0.342 °C
THOP1 (UniProt P52888),melting temperature shift,MBE1 concentration: 100 nM,-0.828 °C
same,melting temperature shift,MBE1 concentration: 1 uM,-0.952 °C
SMTN (UniProt P53814),melting temperature shift,MBE1 concentration: 100 nM,-0.9 °C
same,melting temperature shift,MBE1 concentration: 1 uM,-0.487 °C
UniProt P63172,melting temperature shift,MBE1 concentration: 100 nM,0.0427 °C
same,melting temperature shift,MBE1 concentration: 1 uM,1.42 °C
PGGT1B (UniProt P53609),melting temperature shift,MBE1 concentration: 100 nM,-0.496 °C
same,melting temperature shift,MBE1 concentration: 1 uM,0.134 °C
DYNLL1 (UniProt P63167),melting temperature shift,MBE1 concentration: 100 nM,0.0672 °C
same,melting temperature shift,MBE1 concentration: 1 uM,-0.702 °C
UniProt P54274,melting temperature shift,MBE1 concentration: 100 nM,0.177 °C
same,melting temperature shift,MBE1 concentration: 1 uM,-2.29 °C
MLLT4 (UniProt P55196),melting temperature shift,MBE1 concentration: 100 nM,-2.7 °C
same,melting temperature shift,MBE1 concentration: 1 uM,-2.79 °C
ALDH18A1 (UniProt P54886),melting temperature shift,MBE1 concentration: 100 nM,-0.235 °C
same,melting temperature shift,MBE1 concentration: 1 uM,0.44 °C
RPL30 (UniProt P62888),melting temperature shift,MBE1 concentration: 100 nM,-0.065 °C
same,melting temperature shift,MBE1 concentration: 1 uM,-0.366 °C
NEK4 (UniProt P51957),melting temperature shift,MBE1 concentration: 100 nM,-2.02 °C
same,melting temperature shift,MBE1 concentration: 1 uM,0.0977 °C
RAN (UniProt P62826),melting temperature shift,MBE1 concentration: 100 nM,-1.24 °C
same,melting temperature shift,MBE1 concentration: 1 uM,-0.85 °C
AGFG1 (UniProt P52594),melting temperature shift,MBE1 concentration: 100 nM,-0.221 °C
same,melting temperature shift,MBE1 concentration: 1 uM,-0.00611 °C
NPEPPS (UniProt P55786),melting temperature shift,MBE1 concentration: 100 nM,-1.06 °C
same,melting temperature shift,MBE1 concentration: 1 uM,0.055 °C
CSE1L (UniProt P55060),melting temperature shift,MBE1 concentration: 100 nM,0.263 °C
same,melting temperature shift,MBE1 concentration: 1 uM,-0.14 °C
ARFIP2 (UniProt P53365),melting temperature shift,MBE1 concentration: 100 nM,-0.458 °C
same,melting temperature shift,MBE1 concentration: 1 uM,-0.00611 °C
RABGGTB (UniProt P53611),melting temperature shift,MBE1 concentration: 100 nM,1.17 °C
same,melting temperature shift,MBE1 concentration: 1 uM,0.336 °C
CTSC (UniProt P53634),melting temperature shift,MBE1 concentration: 100 nM,-0.684 °C
same,melting temperature shift,MBE1 concentration: 1 uM,1.21 °C
UniProt P53804,melting temperature shift,MBE1 concentration: 100 nM,-0.226 °C
same,melting temperature shift,MBE1 concentration: 1 uM,-0.623 °C
SMS (UniProt P52788),melting temperature shift,MBE1 concentration: 100 nM,-0.855 °C
same,melting temperature shift,MBE1 concentration: 1 uM,1.09 °C
VCP (UniProt P55072),melting temperature shift,MBE1 concentration: 100 nM,-1.28 °C
same,melting temperature shift,MBE1 concentration: 1 uM,-1.28 °C
ARPP19 (UniProt P56211),melting temperature shift,MBE1 concentration: 100 nM,-2.32 °C
same,melting temperature shift,MBE1 concentration: 1 uM,-0.275 °C
RPS3A (UniProt P61247),melting temperature shift,MBE1 concentration: 100 nM,-0.757 °C
same,melting temperature shift,MBE1 concentration: 1 uM,0.122 °C
VAMP7 (UniProt P51809),melting temperature shift,MBE1 concentration: 100 nM,-0.389 °C
same,melting temperature shift,MBE1 concentration: 1 uM,-0.273 °C
UniProt P56645,melting temperature shift,MBE1 concentration: 100 nM,-0.228 °C
same,melting temperature shift,MBE1 concentration: 1 uM,0.55 °C
GRB2 (UniProt P62993),melting temperature shift,MBE1 concentration: 100 nM,0.322 °C
same,melting temperature shift,MBE1 concentration: 1 uM,0.114 °C
CD81 (UniProt P60033),melting temperature shift,MBE1 concentration: 100 nM,1.99 °C
same,melting temperature shift,MBE1 concentration: 1 uM,1.07 °C
GNB1 (UniProt P62873),melting temperature shift,MBE1 concentration: 100 nM,-0.788 °C
same,melting temperature shift,MBE1 concentration: 1 uM,-1.31 °C
SNRPD2 (UniProt P62316),melting temperature shift,MBE1 concentration: 100 nM,-1.67 °C
same,melting temperature shift,MBE1 concentration: 1 uM,-0.996 °C
RPS18 (UniProt P62269),melting temperature shift,MBE1 concentration: 100 nM,-0.556 °C
same,melting temperature shift,MBE1 concentration: 1 uM,0.393 °C
UniProt P54803,melting temperature shift,MBE1 concentration: 100 nM,-2.48 °C
same,melting temperature shift,MBE1 concentration: 1 uM,-4.24 °C
YWHAZ (UniProt P63104),melting temperature shift,MBE1 concentration: 100 nM,-1.32 °C
same,melting temperature shift,MBE1 concentration: 1 uM,-0.898 °C
UniProt P62341,melting temperature shift,MBE1 concentration: 100 nM,-0.177 °C
same,melting temperature shift,MBE1 concentration: 1 uM,1.78 °C
WDR5 (UniProt P61964),melting temperature shift,MBE1 concentration: 100 nM,-3.83 °C
same,melting temperature shift,MBE1 concentration: 1 uM,0.461 °C
UniProt P56377,melting temperature shift,MBE1 concentration: 100 nM,0.232 °C
same,melting temperature shift,MBE1 concentration: 1 uM,-1.29 °C
NUP98 (UniProt P52948),melting temperature shift,MBE1 concentration: 100 nM,0.928 °C
same,melting temperature shift,MBE1 concentration: 1 uM,0.592 °C
EEFSEC (UniProt P57772),melting temperature shift,MBE1 concentration: 100 nM,0.409 °C
same,melting temperature shift,MBE1 concentration: 1 uM,0.275 °C
COPS2 (UniProt P61201),melting temperature shift,MBE1 concentration: 100 nM,0.355 °C
same,melting temperature shift,MBE1 concentration: 1 uM,0.651 °C
HADHB (UniProt P55084),melting temperature shift,MBE1 concentration: 100 nM,0.959 °C
same,melting temperature shift,MBE1 concentration: 1 uM,0.318 °C
NDUFA6 (UniProt P56556),melting temperature shift,MBE1 concentration: 100 nM,0.44 °C
same,melting temperature shift,MBE1 concentration: 1 uM,0.128 °C
ZNF143 (UniProt P52747),melting temperature shift,MBE1 concentration: 100 nM,0.153 °C
same,melting temperature shift,MBE1 concentration: 1 uM,-0.745 °C
SYNJ2BP (UniProt P57105),melting temperature shift,MBE1 concentration: 100 nM,-0.0855 °C
same,melting temperature shift,MBE1 concentration: 1 uM,-0.165 °C
KPNA1 (UniProt P52294),melting temperature shift,MBE1 concentration: 100 nM,-1.36 °C
same,melting temperature shift,MBE1 concentration: 1 uM,-0.773 °C
RAC1 (UniProt P63000),melting temperature shift,MBE1 concentration: 100 nM,0.122 °C
same,melting temperature shift,MBE1 concentration: 1 uM,0.61 °C
CASP7 (UniProt P55210),melting temperature shift,MBE1 concentration: 100 nM,-1.95 °C
same,melting temperature shift,MBE1 concentration: 1 uM,0.959 °C
TUBA4A (UniProt P68366),melting temperature shift,MBE1 concentration: 100 nM,-0.181 °C
same,melting temperature shift,MBE1 concentration: 1 uM,0.241 °C
NAGLU (UniProt P54802),melting temperature shift,MBE1 concentration: 100 nM,-2.69 °C
same,melting temperature shift,MBE1 concentration: 1 uM,-0.514 °C
RPL23A (UniProt P62750),melting temperature shift,MBE1 concentration: 100 nM,-0.971 °C
same,melting temperature shift,MBE1 concentration: 1 uM,-0.0183 °C
CCNH (UniProt P51946),melting temperature shift,MBE1 concentration: 100 nM,0.147 °C
same,melting temperature shift,MBE1 concentration: 1 uM,0.287 °C
RPL32 (UniProt P62910),melting temperature shift,MBE1 concentration: 100 nM,-1.18 °C
same,melting temperature shift,MBE1 concentration: 1 uM,-0.0886 °C
ACTR3 (UniProt P61158),melting temperature shift,MBE1 concentration: 100 nM,-0.739 °C
same,melting temperature shift,MBE1 concentration: 1 uM,-0.372 °C
MAPK12 (UniProt P53778),melting temperature shift,MBE1 concentration: 100 nM,-0.738 °C
same,melting temperature shift,MBE1 concentration: 1 uM,0.733 °C
SNU13 (UniProt P55769),melting temperature shift,MBE1 concentration: 100 nM,-1.24 °C
same,melting temperature shift,MBE1 concentration: 1 uM,-1.58 °C
EEF1A1 (UniProt P68104),melting temperature shift,MBE1 concentration: 100 nM,-0.0939 °C
same,melting temperature shift,MBE1 concentration: 1 uM,0.282 °C
ACTR1A (UniProt P61163),melting temperature shift,MBE1 concentration: 100 nM,-1.63 °C
same,melting temperature shift,MBE1 concentration: 1 uM,0.171 °C
MARS (UniProt P56192),melting temperature shift,MBE1 concentration: 100 nM,0.243 °C
same,melting temperature shift,MBE1 concentration: 1 uM,-0.0855 °C
PPP2R2A (UniProt P63151),melting temperature shift,MBE1 concentration: 100 nM,-0.641 °C
same,melting temperature shift,MBE1 concentration: 1 uM,0.25 °C
UFM1 (UniProt P61960),melting temperature shift,MBE1 concentration: 100 nM,0.503 °C
same,melting temperature shift,MBE1 concentration: 1 uM,-0.0672 °C
VAV2 (UniProt P52735),melting temperature shift,MBE1 concentration: 100 nM,-0.607 °C
same,melting temperature shift,MBE1 concentration: 1 uM,-0.722 °C
PSMC5 (UniProt P62195),melting temperature shift,MBE1 concentration: 100 nM,-0.63 °C
same,melting temperature shift,MBE1 concentration: 1 uM,0.79 °C
YWHAG (UniProt P61981),melting temperature shift,MBE1 concentration: 100 nM,-1.42 °C
same,melting temperature shift,MBE1 concentration: 1 uM,-1.4 °C
S100A10 (UniProt P60903),melting temperature shift,MBE1 concentration: 100 nM,-0.778 °C
same,melting temperature shift,MBE1 concentration: 1 uM,0.301 °C
RARS (UniProt P54136),melting temperature shift,MBE1 concentration: 100 nM,-0.635 °C
same,melting temperature shift,MBE1 concentration: 1 uM,-0.583 °C
PSMC1 (UniProt P62191),melting temperature shift,MBE1 concentration: 100 nM,-0.463 °C
same,melting temperature shift,MBE1 concentration: 1 uM,0.951 °C
RPS20 (UniProt P60866),melting temperature shift,MBE1 concentration: 100 nM,-0.861 °C
same,melting temperature shift,MBE1 concentration: 1 uM,-0.623 °C
RAB5B (UniProt P61020),melting temperature shift,MBE1 concentration: 100 nM,0.157 °C
same,melting temperature shift,MBE1 concentration: 1 uM,0.374 °C

# In another format: results already given.
target	measurement	setting	value
UniProt P62072	melting temperature shift	MBE1 concentration: 1 uM	-3.37 °C
DYNLL1 (UniProt P63167)	melting temperature shift	MBE1 concentration: 100 nM	0.0672 °C
RAN (UniProt P62826)	melting temperature shift	MBE1 concentration: 100 nM	-1.24 °C
SNRPD2 (UniProt P62316)	melting temperature shift	MBE1 concentration: 100 nM	-1.67 °C
VAV2 (UniProt P52735)	melting temperature shift	MBE1 concentration: 1 uM	-0.722 °C
RARS (UniProt P54136)	melting temperature shift	MBE1 concentration: 1 uM	-0.583 °C
